Data taken from patent publication US10822367B2, “Pharmaceutical composition for preventing or treating dementia and improving cognitive function, comprising glasswort extract” (priority 2017, dated 2020).

Test system: forgetfulness animal models using scopolamine
Assay: Passive avoidance test
Type: in vivo, mice
Details: scopolamine 1 mg/kg intraperitoneally
Experimental: A test was conducted to investigate the improvement efficacy of cognitive ability and memory of the desalted Salicornia europaea extract (PM-EE) obtained in example 4-1 above and acanthoside B as an AChE inhibitory and neuroinflammation inhibiting substance isolated from PM-EE in examples 4-2 and 4-3. The learning ability effect was measured through a passive avoidance test in forgetfulness animal models using scopolamine. Mice were placed in the bright section with shining light and allowed to go over for 20 seconds. Subsequently, the guillotine door was opened and the mouse was allowed to enter into the dark section. […] The time from when the guillotine door was opened to when the mouse entered the dark section was measured. Once the mouse entered the dark section, the guillotine door was closed, and an electric shock of 0.25 mA flows through a grid bottom for 3 seconds, and the mouse remembered this electrical action. The present test was conducted 24 hours after the learning test. […] At 30 minutes after the administration of scopolamine, the mouse was allowed to go over for 10 seconds, and then the time taken for four feet of the mouse to enter the dark section after the opening of the guillotine door (transfer latency time, TLT: retention time) was measured up to 150 seconds. […]

`CN1[C@@H]2C[C@@H](OC(=O)[C@H](CO)c3ccccc3)C[C@H]1[C@@H]1O[C@@H]12` [scopolamine, reference compound] was tested, and the “Retention time in groups administered with only scopolamine” value was “significantly reduced”.
